Experimental data taken from the supplement of paper PMC8256030.
“And” between values parts separate entries of the source, which are not always exact repeats. Equal entries are not always repeated. Some of the results follow. Single values are uncertain here, since repeats match poorly.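 HEK293T cells were given each compound shortly before transfection with a reporter in which red mCherry is followed by the SARS-CoV-2 frameshift element and then GFP in the −1 frame, so GFP appears only after frameshifting.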

Each compound was assayed on SARS-CoV-2 -1 PRF reporter mCherry-FSE-GFP(-1) (assay: mCherry (red) intensity as percent of control; higher = higher upstream reporter expression). Details: 10 µM; 24 h; HEK293T.

| SMILES | mCherry |
| --- | --- |
| COC(=O)Nc1nc2cc(C(=O)c3cccs3)ccc2[nH]1 [nocodazole] | 26.4% |
| CCN[C@H]1C[C@H](C)S(=O)(=O)c2sc(S(N)(=O)=O)cc21 [dorzolamide] | 103% |
| CC(C(=O)O)c1ccc2c(c1)CC(=O)c1ccccc1S2 (stereo not given) [zaltoprofen] | 107% |
| C[C@]12CCC(=O)C=C1[C@@H]1C[C@@H]1[C@H]1[C@@H]3[C@@H]4C[C@@H]4[C@@]4(CCC(=O)O4)[C@@]3(C)CC[C@@H]12 [drospirenone] | 104% and 112% |
| Nc1c(CC(=O)O)cccc1C(=O)c1ccc(Br)cc1 [Xibrom] | 109% |
| O=C(O)c1ccc(-n2nc(-c3ccccc3O)nc2-c2ccccc2O)cc1 [deferasirox] | 99.2% |
| CC(=O)O[C@H]1Cc2ccccc2N(C(N)=O)c2ccccc21 [Eslicarbazepine acetate] | 89.4% |
| CC1CCCC(C)N1CCCCNC(=O)C(Oc1ccccc1)c1ccccc1 (stereo not given) [oxiramide] | 76.1% |
| C[S+](CC[C@H](N)C(=O)[O-])C[C@H]1O[C@@H](n2cnc3c(N)ncnc32)[C@H](O)[C@@H]1O (stereo not given in full) [S-Adenosylmethionine] | 85.4% |
| C[C@@H]1C[C@H]2[C@@H]3CCC4=CC(=O)C=C[C@]4(C)[C@@]3(F)[C@@H](O)C[C@]2(C)[C@@]1(O)C(=O)CO [dexamethasone] | 108% and 115% |
| CO[C@H]1C[C@H](O[C@@H]2/C(C)=C\C[C@@H]3C[C@@H](C[C@]4(C=C[C@H](C)[C@@H](C(C)C)O4)O3)OC(=O)[C@@H]3C=C(C)[C@@H](O)[C@H]4OC/C(=C/C=C\[C@@H]2C)[C@]43O)O[C@@H](C)[C@H]1O[C@H]1C[C@@H](OC)[C@H](NC(C)=O)[C@H](C)O1 | 101% |
| CC[C@]1(O)C[C@@H]2CN(CCc3c([nH]c4ccccc34)[C@@](C(=O)OC)(c3cc4c(cc3OC)N(C)[C@H]3[C@@](O)(C(=O)OC)[C@H](OC(C)=O)[C@]5(CC)C=CCN6CC[C@]43[C@@H]65)C2)C1 | 20.8% |
| O=C(NCCCN1CCOCC1)c1ccc(Cl)cc1 [eprobemide] | 89% |
| COc1ccc(CCNCC(O)COc2cccc(C)c2)cc1OC (stereo not given) [bevantolol] | 108% |
| Cc1ccc(Nc2c(F)cccc2Cl)c(CC(=O)O)c1 [lumiracoxib] | 113% |
| CC(C)c1nc(CN(C)C(=O)N[C@H](C(=O)N[C@@H](Cc2ccccc2)C[C@H](O)[C@H](Cc2ccccc2)NC(=O)OCc2cncs2)C(C)C)cs1 [ritonavir] | 83.1% |
| CC(C)c1ccccc1 [Sucralfate] | 89.7% |
| OCCN1CCN(CC/C=C2/c3ccccc3Sc3ccc(Cl)cc32)CC1 [zuclopenthixol] | 40.2% |
| CCCCCCCCCCCCCCCCCCCCCCO | 99.6% |
| CN(C)[C@@H]1C(=O)C(C(=O)NCNCCCC[C@H](N)C(=O)O)=C(O)[C@@]2(O)C(=O)C3=C(O)c4c(O)cccc4[C@@](C)(O)[C@H]3C[C@@H]12 [lymecycline] | 131% |

Part of the list above, with bars between the fields.
SMILES | mCherry
Nc1c(CC(=O)O)cccc1C(=O)c1ccc(Br)cc1 [Xibrom] | 109%
CO[C@H]1C[C@H](O[C@@H]2/C(C)=C\C[C@@H]3C[C@@H](C[C@]4(C=C[C@H](C)[C@@H](C(C)C)O4)O3)OC(=O)[C@@H]3C=C(C)[C@@H](O)[C@H]4OC/C(=C/C=C\[C@@H]2C)[C@]43O)O[C@@H](C)[C@H]1O[C@H]1C[C@@H](OC)[C@H](NC(C)=O)[C@H](C)O1 | 101%
COc1ccc(CCNCC(O)COc2cccc(C)c2)cc1OC (stereo not given) [bevantolol] | 108%

(more compounds)

| SMILES | mCherry |
| --- | --- |
| O=C1CC2(CCCC2)CC(=O)N1CCCCN1CCN(c2ncccn2)CC1 [buspirone] | 87% and 76.1% |
| C[N+](C)(C)[C@@H](Cc1c[nH]c(=S)[nH]1)C(=O)[O-] [Ergothioneine] | 99.4% |
| Cc1cccc(C)c1NC(=O)CN(CC(=O)O)CC(=O)O [lidofenin] | 89.6% |
| C[C@@H](O)CCCCn1c(=O)c2c(ncn2C)n(C)c1=O [lisofylline] | 92.2% |
| CC(C)(C)C(O)/C=C/c1ccc2c(c1)OCO2 (stereo not given) [stiripentol] | 90.9% |
| CCOCC(O)COc1ccc(NC(=O)CC[S+](C)C)cc1 (stereo not given) [suplatast tosilate] | 95.6% |
| CC(=O)NCCCS(=O)(=O)O | 137% |
| O=P(O)(O)OC(Cn1cncn1)(Cn1cncn1)c1ccc(F)cc1F [fosfluconazole] | 104% |
| CC(N)(Cc1ccc(O)cc1)C(=O)O (stereo not drawn) [racemetirosine] | 106% |
| C[C@]12CC[C@@H]3c4ccc(O)cc4CC[C@H]3[C@@H]1CC[C@@H]2OC(=O)CCC1CCCC1 | 116% |
| NS(=O)(=O)c1cc(C(=O)O)cc(N2CCCC2)c1Oc1ccccc1 [piretanide] | 101% |
| Nc1nc(=O)n([C@@H]2CS[C@H](CO)O2)cc1F [emtricitabine] | 89.2% |
| CNCC[C@H](Oc1cccc2ccccc12)c1cccs1 [duloxetine] | 122% |
| CCCNC(=O)NS(=O)(=O)c1ccc(Cl)cc1 [chlorpropamide] | 93.7% |
| C=CCCCCCCCCC(=O)O | 98.2% |
| Cc1cccc(OCC(O)CNC(C)C)c1 (stereo not given) [toliprolol] | 112% |
| CC(=O)CC(c1ccccc1)c1c(O)c2ccccc2oc1=O (stereo not given) [warfarin] | 112% |
| O=c1nc2cccccc-2n1Cc1ccccc1 [benhepazone] | 98.7% |
| C[C@]12C=CC(=O)C=C1CC[C@@H]1[C@@H]2[C@@H](O)C[C@@]2(C)[C@H]1CC[C@]2(O)C(=O)CO [prednisolone] | 93.7% and 97.1% and 111% |
| CCOc1ccccc1C(N)=O [ethenzamide] | 93.6% |
